Experimental data taken from US20040101829A1, “Protein that interacts with lipids and methods for treating hyperlipidemia” (The University of Iowa Research Foundation, priority 2002, published 2004).
These are yes or no findings as the source states them, for the method shown. Some binding calls cover weakened binding; strength is not graded here.

How the values were obtained:
[1] = target: T1, human CD81 on mouse 3T3 cells transfected with human CD81 (human) (UniProt P60033); experiment: summary of the cell binding studies (flow cytometry)
T1 sequence (looked up): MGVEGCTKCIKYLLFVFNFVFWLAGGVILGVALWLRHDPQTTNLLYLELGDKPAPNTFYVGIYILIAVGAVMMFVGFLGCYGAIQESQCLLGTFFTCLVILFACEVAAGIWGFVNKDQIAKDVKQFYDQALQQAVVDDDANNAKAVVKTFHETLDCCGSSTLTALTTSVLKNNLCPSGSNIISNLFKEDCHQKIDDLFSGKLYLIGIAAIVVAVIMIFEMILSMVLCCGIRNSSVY

[2] = target: T1, human CD81 on mouse 3T3 cells transfected with human CD81 (human); experiment: flow cytometry, recombinant E2 on 3T3 cells expressing human CD81, detected with antibody 108

“Purified recombinant HCV envelope glycoprotein E2 (Ala 384-Lys 715) (from UniProt P26664 384-715)” was tested, and the binding [1] was “binds” and the binding [2] was “binds”.
